# PubChem BioAssay AID1259267, Sanger Institute, 2017
# Assay: 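Essential and drug-synergistic knock-downs in GP5D bowel cancer cells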 (primary screen)
# Cell system: human GP5D colorectal cancer cells
# Reagents: siRNA pool against human genes
# Conditions: anchor drugs at low dose: BYL719 1 µM, cetuximab 5 µg/ml, trametinib 10 nM, or DMSO vehicle
# Read-out: 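Viability against non-targeting pool, replicate mean: robust z-score for knock-down alone, fraction with DMSO, synergy with BYL719 1 µM, cetuximab 5 µg/ml, trametinib 10 nM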
# Reading the numbers: robust z-score, knock-down alone and viability with DMSO: higher = more viable cells; synergy score with trametinib and synergy score with BYL719 and synergy score with cetuximab: higher = stronger synthetic lethal synergy with drug
# Rule for the call: 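a robust z-score below -3 for the knock-down by itself makes a gene active, i.e. essential alone; synergy scores are ignored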
# Meaning of the calls: active = essential alone; inactive = not essential
# Shown is one part, drawn at random, of 794 reagents tested. Over the whole deposit, 9 (1.1%) were called active. 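Viability capped at 1; calls reflect loss of viability from knock-down alone, not synergy with drugs.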 Not given: the amount of reagent, the time to read-out.
gene,"robust z-score, knock-down alone",viability with DMSO (fraction of control),synergy score with trametinib,synergy score with BYL719,synergy score with cetuximab,Call
PTPRU,-1.08,0.599,0.0401,-0.201,-0.0866,inactive
PKM,0.817,1,0.107,-0.185,-0.142,inactive
PIK3C2B,0.817,1,0.189,-0.276,0.0432,inactive
ITSN1,-0.865,0.644,0.166,-0.0739,-0.0558,inactive
ARID1A,0.817,1,0.103,-0.112,-0.0106,inactive
GRK4,0.0342,0.834,0.0682,-0.0592,-0.14,inactive
MARK4,0.575,0.949,0.166,0.00352,-0.0795,inactive
SNRK,0.546,0.943,-0.0318,0.0592,0,inactive
PRAG1,-1.08,0.598,0.272,0.121,0.16,inactive
TP53,-0.66,0.687,-0.148,-0.167,-0.224,inactive
HK1,0.817,1,-0.113,-0.14,-0.142,inactive
TRIB1,0.817,1,-0.197,-0.284,-0.138,inactive
GUCY2D,-3.71,0.0409,0.00622,-0.226,0.0157,active

Continued, starting with the last 3 of the part before.
gene,"robust z-score, knock-down alone",viability with DMSO (fraction of control),synergy score with trametinib,synergy score with BYL719,synergy score with cetuximab,Call
HK1,0.817,1,-0.113,-0.14,-0.142,inactive
TRIB1,0.817,1,-0.197,-0.284,-0.138,inactive
GUCY2D,-3.71,0.0409,0.00622,-0.226,0.0157,active
NEK6,0.817,1,-0.197,-0.226,-0.142,inactive
DYRK3,0.817,1,0.179,-0.0158,-0.125,inactive
WNK2,0.817,1,-0.126,-0.174,-0.142,inactive
NAGK,-2.23,0.353,-0.264,-0.172,-0.0272,inactive
CLK4,0.72,0.979,0.175,-0.136,-0.137,inactive
BUB1B,0.686,0.972,-0.0272,-0.17,-0.127,inactive
FLT3,0.817,1,0.183,-0.26,-0.142,inactive
APC,-0.648,0.689,0.0992,0.0693,0.0431,inactive
MLKL,-0.423,0.737,-0.335,-0.419,-0.113,inactive
POLR2B,-1.83,0.439,-0.238,-0.402,-0.271,inactive
CIB2,-1.84,0.437,-0.444,-0.288,-0.00508,inactive
CDK14,-1.58,0.492,-0.163,-0.326,-0.0442,inactive
LTK,0.817,1,0.173,0.0124,0.171,inactive
PIP5K1B,0.817,1,-0.0514,-0.134,-0.142,inactive
RFK,0.817,1,-0.0123,-0.294,-0.142,inactive
ETNK1,0.817,1,0.0262,-0.0761,-0.114,inactive
PMVK,0.817,1,0.0177,-0.132,0.0142,inactive
RNASEL,0.817,1,0.104,-0.219,-0.142,inactive
NUAK2,-0.543,0.712,-0.0481,-0.13,-0.136,inactive
SKAP1,0.817,1,-0.197,-0.361,-0.142,inactive
CDKL4,-0.654,0.688,0.00387,-0.103,-0.0443,inactive
